{
  "sequences": {"note": "Sequences of proteins named here, by UniProt entry; tags and fusion partners are left off. A change or cut given only in a name is not applied to a line headed by its entry.", "UniProt A0A0F6B1M3": "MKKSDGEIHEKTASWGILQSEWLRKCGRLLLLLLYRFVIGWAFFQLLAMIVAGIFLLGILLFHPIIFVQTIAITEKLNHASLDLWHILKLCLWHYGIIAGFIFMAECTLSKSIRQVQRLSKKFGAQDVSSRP"},
  "source": "paper PMC8896665",
  "target": "UgtS-HA (S. Typhimurium)",
  "assay": "pull-down; in vitro synthesised proteins mixed in 500 ul TBS containing proteoliposomes (0.12 mg/ml), room temperature 2 h; pulled down with anti-HA magnetic beads at room temperature for 2 h (UgtS-HA as bait); Western blot with anti-FLAG or anti-HA",
  "note": "Results are given in words; binding and its absence hold for the method and conditions named. Binding seen in cells or lysates may run through a third protein. A result given as binding can be weak or reduced; the word gives no strength.",
  "data": [
    {"substance": "UgtL-FLAG (from UniProt A0A0F6B1M3)", "values": [
      {"measurement": "binding", "result": "binds"}
    ]}
  ]
}
